Earlier results, collected in publication PMC4433340 (PLoS Neglected Tropical Diseases, 2015).

Tested on: Trypanosoma cruzi
Design: method as in PMID 19735656
Settings: read-out: IC50 for trypanocidal action; cited from earlier work

O=C(Cn1ccnc1[N+](=O)[O-])NCc1ccccc1 [Benznidazole]
IC50: 20 µM
